Experimental data reported in PMC8990461.

Target: myosin tail domain of MYH9
Test: co-IP; Pierce Co-Immunoprecipitation kit; 5 mg protein of HCC cell lysate with 10 µg antibody or IgG (negative control), 4 °C overnight; eluate read by Western blot

- binding: binds
B1: ENKUR (Enkurin), overexpressed in HCC cells (protein, UniProt Q8TC29 1-256)
chain: MDPTCSSECIYNLIPSDLKEPPQPPRYISIFKATVKDDMQKAKTAMKTMGPAKVEVPSPKDFLKKHSKEKTLPPKKNFDRNVPKKPAVPLKTDHPVMGIQSGKNFINTNAADIIMGVAKKPKPIYVDKRTGDKHDLEPSGLVPKYINKKDYGVTPEYICKRNEEIKKAQEDYDRYIQENLKKAAMKRLSDEEREAVLQGLKKNWEEVHKEFQSLSVFIDSIPKKIRKQRLEEEMKQLEHDIGIIEKHKIIYIANNA

No constants are given. Whether binding was seen depends on the method and setting. In cells and extracts the contact can be indirect. A result given as binding can be weak or reduced; the word gives no strength.
